Some of the results follow.
Compound: COc1ccc(Cn2ccc3cc(C)c(C(=O)NO)cc32)cc1
Assay: dose-dependent thermal stabilisation call (2D-TPP, DLPTP, 10% FDR) (binary (1 = stabilised)); higher = stabilised by the compound
Conditions: system: HL-60 intact cells; concentration range 0.04-10 µM
Protocol: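 2D thermal proteome profiling in intact HL-60 cells treated with BRD-3811 (0, 0.04, 0.29, 2, 10 uM) for 90 min at 37 C, then heated 3 min at one of 12 temperatures (42-63.9 C). Soluble protein was quantified by TMT10 MS. The value is the DLPTP call of the paper: dose-dependent thermal stabilisation over all temperatures at 10% FDR (F-test of a dose-response against a flat model); one experiment, one call per tested protein.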

Amino acid sequences for entries named in this document (tags omitted). A change or cut given only in a name is not applied to a line headed by its entry.
UniProt P23921: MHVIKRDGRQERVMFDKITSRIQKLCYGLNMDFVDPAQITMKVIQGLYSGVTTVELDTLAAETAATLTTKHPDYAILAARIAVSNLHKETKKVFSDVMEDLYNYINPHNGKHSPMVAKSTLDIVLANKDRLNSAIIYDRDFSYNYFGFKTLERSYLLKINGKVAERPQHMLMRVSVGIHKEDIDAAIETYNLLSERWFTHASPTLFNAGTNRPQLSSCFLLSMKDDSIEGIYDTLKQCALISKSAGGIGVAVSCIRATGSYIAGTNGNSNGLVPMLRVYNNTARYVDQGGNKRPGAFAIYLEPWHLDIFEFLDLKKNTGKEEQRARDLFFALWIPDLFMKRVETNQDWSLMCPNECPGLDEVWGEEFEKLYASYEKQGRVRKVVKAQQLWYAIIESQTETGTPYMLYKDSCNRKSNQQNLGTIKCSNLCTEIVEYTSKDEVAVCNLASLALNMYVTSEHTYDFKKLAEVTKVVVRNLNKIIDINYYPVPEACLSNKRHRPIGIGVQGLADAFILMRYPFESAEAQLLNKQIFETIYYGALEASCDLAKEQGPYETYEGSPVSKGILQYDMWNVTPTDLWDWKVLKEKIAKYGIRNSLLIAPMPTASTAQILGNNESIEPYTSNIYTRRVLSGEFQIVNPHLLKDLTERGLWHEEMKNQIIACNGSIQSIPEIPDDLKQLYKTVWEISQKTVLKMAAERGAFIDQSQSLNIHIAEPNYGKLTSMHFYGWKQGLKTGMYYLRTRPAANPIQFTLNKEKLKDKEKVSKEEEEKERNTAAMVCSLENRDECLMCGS
UniProt Q9NTJ5: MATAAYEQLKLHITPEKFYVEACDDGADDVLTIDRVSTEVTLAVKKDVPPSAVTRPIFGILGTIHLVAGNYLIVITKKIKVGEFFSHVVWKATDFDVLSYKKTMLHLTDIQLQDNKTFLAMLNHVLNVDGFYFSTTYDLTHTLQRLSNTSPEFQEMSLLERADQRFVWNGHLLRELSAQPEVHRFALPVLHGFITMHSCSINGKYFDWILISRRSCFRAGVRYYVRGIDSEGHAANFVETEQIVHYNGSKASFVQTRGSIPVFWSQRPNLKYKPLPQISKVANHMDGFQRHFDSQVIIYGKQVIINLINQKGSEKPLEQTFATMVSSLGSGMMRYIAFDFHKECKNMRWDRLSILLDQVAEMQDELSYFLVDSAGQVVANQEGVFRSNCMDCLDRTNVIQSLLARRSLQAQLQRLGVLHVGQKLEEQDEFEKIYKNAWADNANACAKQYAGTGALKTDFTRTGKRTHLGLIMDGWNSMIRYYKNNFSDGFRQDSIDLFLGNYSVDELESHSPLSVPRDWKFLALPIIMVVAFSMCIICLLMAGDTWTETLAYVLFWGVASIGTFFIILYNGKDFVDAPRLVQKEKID
UniProt Q96CM3: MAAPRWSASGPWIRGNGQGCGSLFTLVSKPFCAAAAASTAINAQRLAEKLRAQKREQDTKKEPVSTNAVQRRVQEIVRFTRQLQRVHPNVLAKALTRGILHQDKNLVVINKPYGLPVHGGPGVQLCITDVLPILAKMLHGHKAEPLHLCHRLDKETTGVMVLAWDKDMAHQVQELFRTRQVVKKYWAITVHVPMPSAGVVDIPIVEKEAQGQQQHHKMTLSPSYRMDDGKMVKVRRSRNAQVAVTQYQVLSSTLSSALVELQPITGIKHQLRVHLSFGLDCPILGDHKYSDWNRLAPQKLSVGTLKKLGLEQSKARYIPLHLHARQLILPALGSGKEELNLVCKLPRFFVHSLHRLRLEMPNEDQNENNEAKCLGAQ
UniProt Q9NRX5: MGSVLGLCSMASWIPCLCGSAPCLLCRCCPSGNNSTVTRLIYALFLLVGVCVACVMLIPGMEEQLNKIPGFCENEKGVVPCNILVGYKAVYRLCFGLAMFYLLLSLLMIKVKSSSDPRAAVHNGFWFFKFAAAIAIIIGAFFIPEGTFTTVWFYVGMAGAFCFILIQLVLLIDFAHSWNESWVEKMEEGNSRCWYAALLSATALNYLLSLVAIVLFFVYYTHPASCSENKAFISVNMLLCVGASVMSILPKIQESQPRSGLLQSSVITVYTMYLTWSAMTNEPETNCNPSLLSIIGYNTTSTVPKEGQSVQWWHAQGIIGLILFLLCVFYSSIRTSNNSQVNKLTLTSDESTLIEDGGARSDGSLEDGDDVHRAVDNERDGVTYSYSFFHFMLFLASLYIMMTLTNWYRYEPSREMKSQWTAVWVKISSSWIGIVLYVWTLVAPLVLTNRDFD
UniProt Q9HC36: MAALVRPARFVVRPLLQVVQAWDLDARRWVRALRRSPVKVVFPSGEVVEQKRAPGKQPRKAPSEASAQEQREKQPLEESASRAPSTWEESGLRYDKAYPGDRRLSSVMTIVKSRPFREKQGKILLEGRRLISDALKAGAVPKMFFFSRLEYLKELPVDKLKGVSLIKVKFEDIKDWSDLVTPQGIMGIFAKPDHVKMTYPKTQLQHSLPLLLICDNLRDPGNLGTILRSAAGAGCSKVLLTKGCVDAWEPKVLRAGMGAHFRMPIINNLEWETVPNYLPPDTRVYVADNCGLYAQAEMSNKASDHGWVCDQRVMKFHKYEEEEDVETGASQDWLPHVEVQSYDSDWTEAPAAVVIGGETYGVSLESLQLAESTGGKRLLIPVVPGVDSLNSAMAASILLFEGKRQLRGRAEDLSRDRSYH
UniProt Q9BWG6: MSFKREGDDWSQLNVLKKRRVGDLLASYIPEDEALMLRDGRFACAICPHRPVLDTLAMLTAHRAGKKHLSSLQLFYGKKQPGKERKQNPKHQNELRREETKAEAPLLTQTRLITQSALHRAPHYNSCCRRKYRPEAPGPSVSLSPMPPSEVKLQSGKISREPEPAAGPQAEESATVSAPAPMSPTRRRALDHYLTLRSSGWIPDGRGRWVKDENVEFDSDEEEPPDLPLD
UniProt Q9NQL2, whole entry: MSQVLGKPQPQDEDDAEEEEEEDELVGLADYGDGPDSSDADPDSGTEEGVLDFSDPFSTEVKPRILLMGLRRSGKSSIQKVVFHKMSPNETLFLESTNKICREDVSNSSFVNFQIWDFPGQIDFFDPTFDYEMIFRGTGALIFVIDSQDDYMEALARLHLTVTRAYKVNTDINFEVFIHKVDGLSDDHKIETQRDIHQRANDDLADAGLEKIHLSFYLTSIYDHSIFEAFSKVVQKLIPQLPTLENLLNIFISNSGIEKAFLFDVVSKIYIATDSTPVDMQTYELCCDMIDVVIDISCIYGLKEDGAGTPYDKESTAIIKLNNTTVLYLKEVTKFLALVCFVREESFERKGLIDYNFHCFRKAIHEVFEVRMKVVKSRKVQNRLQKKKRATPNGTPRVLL
UniProt Q15800: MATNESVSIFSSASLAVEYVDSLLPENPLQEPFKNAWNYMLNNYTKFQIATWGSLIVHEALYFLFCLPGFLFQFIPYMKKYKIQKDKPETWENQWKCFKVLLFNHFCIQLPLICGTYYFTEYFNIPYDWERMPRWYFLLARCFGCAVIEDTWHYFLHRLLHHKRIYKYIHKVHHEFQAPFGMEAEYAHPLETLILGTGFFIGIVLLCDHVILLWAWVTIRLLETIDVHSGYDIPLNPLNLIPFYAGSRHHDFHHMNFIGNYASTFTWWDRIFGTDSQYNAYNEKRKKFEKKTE
UniProt O95059: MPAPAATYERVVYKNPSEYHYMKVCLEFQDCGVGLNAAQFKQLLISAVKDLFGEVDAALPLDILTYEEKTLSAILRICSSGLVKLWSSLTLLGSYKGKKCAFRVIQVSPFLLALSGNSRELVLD
UniProt Q9H446: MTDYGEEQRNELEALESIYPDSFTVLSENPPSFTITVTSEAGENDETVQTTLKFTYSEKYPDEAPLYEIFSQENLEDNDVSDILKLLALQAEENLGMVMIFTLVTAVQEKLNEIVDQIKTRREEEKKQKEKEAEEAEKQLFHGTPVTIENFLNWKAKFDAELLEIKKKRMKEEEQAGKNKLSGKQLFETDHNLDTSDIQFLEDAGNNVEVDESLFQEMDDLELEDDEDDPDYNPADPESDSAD
UniProt Q5K651: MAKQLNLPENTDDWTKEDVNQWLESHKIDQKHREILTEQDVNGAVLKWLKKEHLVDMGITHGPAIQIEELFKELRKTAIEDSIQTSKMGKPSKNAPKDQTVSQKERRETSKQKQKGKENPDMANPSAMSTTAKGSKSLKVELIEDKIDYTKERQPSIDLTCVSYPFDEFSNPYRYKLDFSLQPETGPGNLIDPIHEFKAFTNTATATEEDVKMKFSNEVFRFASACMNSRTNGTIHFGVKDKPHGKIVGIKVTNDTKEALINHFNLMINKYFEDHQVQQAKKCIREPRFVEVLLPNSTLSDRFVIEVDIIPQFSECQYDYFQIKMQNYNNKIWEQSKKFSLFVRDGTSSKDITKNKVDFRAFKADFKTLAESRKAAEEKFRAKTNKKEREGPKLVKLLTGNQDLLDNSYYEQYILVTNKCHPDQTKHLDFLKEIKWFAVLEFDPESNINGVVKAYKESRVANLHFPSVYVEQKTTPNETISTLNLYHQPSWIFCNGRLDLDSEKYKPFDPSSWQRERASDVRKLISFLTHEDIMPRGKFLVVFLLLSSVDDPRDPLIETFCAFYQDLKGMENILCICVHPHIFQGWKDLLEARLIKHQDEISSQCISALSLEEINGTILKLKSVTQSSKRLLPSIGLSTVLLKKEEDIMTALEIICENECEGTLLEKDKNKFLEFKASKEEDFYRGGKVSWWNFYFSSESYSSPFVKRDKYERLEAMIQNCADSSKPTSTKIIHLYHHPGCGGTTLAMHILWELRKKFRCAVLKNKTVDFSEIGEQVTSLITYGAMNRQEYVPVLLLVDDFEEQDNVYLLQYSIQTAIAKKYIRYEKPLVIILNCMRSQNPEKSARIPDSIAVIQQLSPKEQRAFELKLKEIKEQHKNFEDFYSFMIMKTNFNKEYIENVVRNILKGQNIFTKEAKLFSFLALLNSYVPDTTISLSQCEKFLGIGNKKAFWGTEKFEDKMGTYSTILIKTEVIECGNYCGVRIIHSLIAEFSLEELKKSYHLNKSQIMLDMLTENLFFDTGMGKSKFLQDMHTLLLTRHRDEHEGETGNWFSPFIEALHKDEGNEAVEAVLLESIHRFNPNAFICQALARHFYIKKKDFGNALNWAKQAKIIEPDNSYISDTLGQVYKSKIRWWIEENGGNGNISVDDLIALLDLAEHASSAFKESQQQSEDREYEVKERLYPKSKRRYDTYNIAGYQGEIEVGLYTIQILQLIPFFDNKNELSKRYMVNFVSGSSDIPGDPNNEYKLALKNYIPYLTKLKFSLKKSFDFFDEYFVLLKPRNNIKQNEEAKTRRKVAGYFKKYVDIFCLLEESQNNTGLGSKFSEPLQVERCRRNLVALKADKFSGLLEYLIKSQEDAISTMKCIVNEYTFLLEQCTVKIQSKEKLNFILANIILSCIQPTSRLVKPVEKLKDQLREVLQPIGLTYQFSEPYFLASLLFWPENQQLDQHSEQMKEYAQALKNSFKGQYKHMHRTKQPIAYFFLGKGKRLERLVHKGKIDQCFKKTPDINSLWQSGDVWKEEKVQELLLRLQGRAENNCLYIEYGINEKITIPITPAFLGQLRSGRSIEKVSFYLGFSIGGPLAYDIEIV
UniProt P31040: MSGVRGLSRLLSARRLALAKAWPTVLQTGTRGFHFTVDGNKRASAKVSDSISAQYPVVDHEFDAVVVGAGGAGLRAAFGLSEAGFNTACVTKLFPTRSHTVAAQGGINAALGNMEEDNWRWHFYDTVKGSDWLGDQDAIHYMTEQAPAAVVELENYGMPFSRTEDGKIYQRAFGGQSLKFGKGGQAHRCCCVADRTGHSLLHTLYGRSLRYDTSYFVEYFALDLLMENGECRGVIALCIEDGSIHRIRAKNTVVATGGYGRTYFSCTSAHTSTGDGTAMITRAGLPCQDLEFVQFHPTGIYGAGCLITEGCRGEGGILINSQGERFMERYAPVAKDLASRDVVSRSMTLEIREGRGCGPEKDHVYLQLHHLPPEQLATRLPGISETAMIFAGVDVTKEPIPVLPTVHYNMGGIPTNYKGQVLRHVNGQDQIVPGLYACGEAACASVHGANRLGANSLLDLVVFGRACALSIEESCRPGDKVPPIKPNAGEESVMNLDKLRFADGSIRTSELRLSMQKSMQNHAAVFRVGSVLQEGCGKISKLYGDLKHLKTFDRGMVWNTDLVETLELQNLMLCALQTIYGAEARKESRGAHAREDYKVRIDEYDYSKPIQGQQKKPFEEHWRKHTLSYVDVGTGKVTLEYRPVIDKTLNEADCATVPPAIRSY
UniProt P26447: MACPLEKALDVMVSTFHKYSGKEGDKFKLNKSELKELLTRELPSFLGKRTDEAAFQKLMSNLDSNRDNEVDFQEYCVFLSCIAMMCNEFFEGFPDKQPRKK
UniProt P67812: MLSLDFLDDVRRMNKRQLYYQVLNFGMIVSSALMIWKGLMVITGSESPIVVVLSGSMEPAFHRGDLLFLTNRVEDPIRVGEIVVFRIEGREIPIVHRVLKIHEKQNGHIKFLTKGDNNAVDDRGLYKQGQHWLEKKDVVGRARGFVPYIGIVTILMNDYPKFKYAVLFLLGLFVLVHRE

Target | dose-dependent thermal stabilisation call
RRM1 (UniProt P23921) | inactive: 0
RRP1 (UniProt P56182) | inactive: 0
RPL18A (UniProt Q02543) | inactive: 0
SACM1L (UniProt Q9NTJ5) | inactive: 0
RPS10 (UniProt P46783) | inactive: 0
RNPEP (UniProt Q9H4A4) | inactive: 0
RPUSD4 (UniProt Q96CM3) | inactive: 0
RPAP3 (UniProt Q9H6T3) | inactive: 0
SDF4 (UniProt Q9BRK5) | inactive: 0
SERINC1 (UniProt Q9NRX5) | inactive: 0
RPL27 (UniProt P61353) | inactive: 0
RNMTL1 (UniProt Q9HC36) | inactive: 0
SCNM1 (UniProt Q9BWG6) | inactive: 0
RPL34 (UniProt P49207) | inactive: 0
RRN3 (UniProt Q9NYV6) | inactive: 0
RRAGD (UniProt Q9NQL2) | inactive: 0
RPUSD3 (UniProt Q6P087) | inactive: 0
RPS8 (UniProt P62241) | inactive: 0
SEC23B (UniProt Q15437) | inactive: 0
SC4MOL (UniProt Q15800) | inactive: 0

Target | dose-dependent thermal stabilisation call
SCFD1 (UniProt Q8WVM8) | inactive: 0
RPP14 (UniProt O95059) | inactive: 0
RNF5 (UniProt Q99942) | inactive: 0
RWDD1 (UniProt Q9H446) | inactive: 0
SAMD9 (UniProt Q5K651) | inactive: 0
RPL37 (UniProt P61927) | inactive: 0
RPL29 (UniProt P47914) | inactive: 0
RPL15 (UniProt P61313) | inactive: 0
RPS20 (UniProt P60866) | inactive: 0
RPS26L1 (UniProt Q5JNZ5) | inactive: 0
SEPT9 (UniProt Q9UHD8) | inactive: 0
SEP15 (UniProt O60613) | inactive: 0
SDHA (UniProt P31040) | inactive: 0
S100A4 (UniProt P26447) | inactive: 0
SEC11A (UniProt P67812) | inactive: 0
SCAPER (UniProt Q9BY12) | inactive: 0
RRP12 (UniProt Q5JTH9) | inactive: 0
RPS3A (UniProt P61247) | inactive: 0
SCYL2 (UniProt Q6P3W7) | inactive: 0
RPL30 (UniProt P62888) | inactive: 0

For convenience, some entries already given:
Target | dose-dependent thermal stabilisation call
RPL15 (UniProt P61313) | inactive: 0
RPS20 (UniProt P60866) | inactive: 0
RPS26L1 (UniProt Q5JNZ5) | inactive: 0

— the supplement of paper PMC7666118
